Reference: article PMC5127583

By UniProt entry, the sequences of proteins in these tests, tags left out.
UniProt Q3URU2: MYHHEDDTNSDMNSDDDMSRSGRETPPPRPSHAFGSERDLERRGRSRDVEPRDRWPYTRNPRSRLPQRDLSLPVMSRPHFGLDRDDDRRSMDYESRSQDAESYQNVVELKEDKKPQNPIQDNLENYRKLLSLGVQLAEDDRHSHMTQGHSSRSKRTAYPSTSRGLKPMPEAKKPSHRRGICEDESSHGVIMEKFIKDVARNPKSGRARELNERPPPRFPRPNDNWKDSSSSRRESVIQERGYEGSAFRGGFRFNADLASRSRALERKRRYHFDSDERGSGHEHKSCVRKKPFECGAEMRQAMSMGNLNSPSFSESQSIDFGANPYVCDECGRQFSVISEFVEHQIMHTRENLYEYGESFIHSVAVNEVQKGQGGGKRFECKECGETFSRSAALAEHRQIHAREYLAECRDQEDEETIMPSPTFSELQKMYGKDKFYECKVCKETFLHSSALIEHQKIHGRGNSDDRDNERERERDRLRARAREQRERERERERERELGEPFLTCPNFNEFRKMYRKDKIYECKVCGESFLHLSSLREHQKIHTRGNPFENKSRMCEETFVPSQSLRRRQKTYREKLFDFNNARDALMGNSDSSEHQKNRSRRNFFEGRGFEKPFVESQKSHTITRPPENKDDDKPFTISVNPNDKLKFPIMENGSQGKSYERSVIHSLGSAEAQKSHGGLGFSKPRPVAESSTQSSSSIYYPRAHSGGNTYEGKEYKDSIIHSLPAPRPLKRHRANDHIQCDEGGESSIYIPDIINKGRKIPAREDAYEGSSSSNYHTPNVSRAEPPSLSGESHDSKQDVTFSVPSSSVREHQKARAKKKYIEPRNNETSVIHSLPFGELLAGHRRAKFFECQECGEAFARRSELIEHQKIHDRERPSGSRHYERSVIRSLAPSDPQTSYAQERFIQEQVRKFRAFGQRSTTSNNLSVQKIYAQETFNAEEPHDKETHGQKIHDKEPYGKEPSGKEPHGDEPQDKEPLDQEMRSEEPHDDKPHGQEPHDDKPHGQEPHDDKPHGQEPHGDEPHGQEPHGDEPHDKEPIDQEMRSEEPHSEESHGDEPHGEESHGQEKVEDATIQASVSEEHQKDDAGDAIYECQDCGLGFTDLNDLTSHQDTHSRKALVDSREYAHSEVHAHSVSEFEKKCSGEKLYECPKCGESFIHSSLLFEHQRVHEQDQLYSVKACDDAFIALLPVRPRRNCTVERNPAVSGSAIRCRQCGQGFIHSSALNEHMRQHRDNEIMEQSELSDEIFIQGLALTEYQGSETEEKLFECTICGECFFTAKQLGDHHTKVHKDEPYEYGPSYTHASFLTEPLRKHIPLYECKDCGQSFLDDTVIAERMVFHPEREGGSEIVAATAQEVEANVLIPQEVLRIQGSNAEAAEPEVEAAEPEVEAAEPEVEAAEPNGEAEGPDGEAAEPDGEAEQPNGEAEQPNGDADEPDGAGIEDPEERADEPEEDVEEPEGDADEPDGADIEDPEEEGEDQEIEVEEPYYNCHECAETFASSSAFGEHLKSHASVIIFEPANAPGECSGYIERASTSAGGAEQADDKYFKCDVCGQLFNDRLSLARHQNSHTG

B1: ACLY (ATP Citrate Lyase), endogenous in mouse embryonic fibroblasts (enzyme, UniProt Q91V92 1-1091)
chain: MSAKAISEQTGKELLYKYICTTSAIQNRFKYARVTPDTDWAHLLQDHPWLLSQSLVVKPDQLIKRRGKLGLVGVNLSLDGVKSWLKPRLGHEATVGKAKGFLKNFLIEPFVPHSQAEEFYVCIYATREGDYVLFHHEGGVDVGDVDAKAQKLLVGVDEKLNTEDIKRHLLVHAPEDKKEVLASFISGLFNFYEDLYFTYLEINPLVVTKDGVYILDLAAKVDATADYICKVKWGDIEFPPPFGREAYPEEAYIADLDAKSGASLKLTLLNPKGRIWTMVAGGGASVVYSDTICDLGGVNELANYGEYSGAPSEQQTYDYAKTILSLMTREKHPEGKILIIGGSIANFTNVAATFKGIVRAIRDYQGPLKEHEVTIFVRRGGPNYQEGLRVMGEVGKTTGIPIHVFGTETHMTAIVGMALGHRPIPNQPPTAAHTANFLLNASGSTSTPAPSRTASFSESRADEVAPAKKAKPAMPQGKSATLFSRHTKAIVWGMQTRAVQGMLDFDYVCSRDEPSVAAMVYPFTGDHKQKFYWGHKEILIPVFKNMADAMKKHPEVDVLINFASLRSAYDSTMETMNYAQIRTIAIIAEGIPEALTRKLIKKADQKGVTIIGPATVGGIKPGCFKIGNTGGMLDNILASKLYRPGSVAYVSRSGGMSNELNNIISRTTDGVYEGVAIGGDRYPGSTFMDHVLRYQDTPGVKMIVVLGEIGGTEEYKICRGIKEGRLTKPVVCWCIGTCATMFSSEVQFGHAGACANQASETAVAKNQALKEAGVFVPRSFDELGEIIQSVYEDLVAKGAIVPAQEVPPPTVPMDYSWARELGLIRKPASFMTSICDERGQELIYAGMPITEVFKEEMGIGGVLGLLWFQRRLPKYSCQFIEMCLMVTADHGPAVSGAHNTIICARAGKDLVSSLTSGLLTIGDRFGGALDAAAKMFSKAFDSGIIPMEFVNKMKKEGKLIMGIGHRVKSINNPDMRVQILKDFVKQHFPATPLLDYALEVEKITTSKKPNLILNVDGFIGVAFVDMLRNCGSFTREEADEYVDIGALNGIFVLGRSMGFIGHYLDQKRLKQGLYRHPWDDISYVLPEHMSM
B2: MEST (Mesoderm specific transcript), endogenous in mouse embryonic fibroblasts (protein, UniProt Q07646 1-335)
chain: MVRRDRLRRMREWWVQVGLLAVPLLAAYLHIPPPQLSPALHSWKTSGKFFTYKGLRIFYQDSVGVVGSPEIVVLLHGFPTSSYDWYKIWEGLTLRFHRVIALDFLGFGFSDKPRPHQYSIFEQASIVESLLRHLGLQNRRINLLSHDYGDIVAQELLYRYKQNRSGRLTIKSLCLSNGGIFPETHRPLLLQKLLKDGGVLSPILTRLMNFFVFSRGLTPVFGPYTRPTESELWDMWAVIRNNDGNLVIDSLLQYINQRKKFRRRWVGALASVSIPIHFIYGPLDPINPYPEFLELYRKTLPRSTVSILDDHISHYPQLEDPMGFLNAYMGFINSF
B3: HK2 (Hexokinase2), endogenous in mouse embryonic fibroblasts (enzyme, UniProt O08528 1-917)
chain: MIASHMIACLFTELNQNQVQKVDQYLYHMRLSDETLLEISRRFRKEMEKGLGATTHPTAAVKMLPTFVRSTPDGTEHGEFLALDLGGTNFRVLRVRVTDNGLQRVEMENQIYAIPEDIMRGSGTQLFDHIAECLANFMDKLQIKEKKLPLGFTFSFPCHQTKLDESFLVSWTKGFKSSGVEGRDVVDLIRKAIQRRGDFDIDIVAVVNDTVGTMMTCGYDDQNCEIGLIVGTGSNACYMEEMRHIDMVEGDEGRMCINMEWGAFGDDGTLNDIRTEFDREIDMGSLNPGKQLFEKMISGMYMGELVRLILVKMAKAELLFQGKLSPELLTTGSFETKDVSDIEDDKDGIQKAYQILVRLGLSPLQEDCVATHRICQIVSTRSASLCAATLAAVLWRIKENKGEERLRSTIGVDGSVYKKHPHFAKRLHKAVRRLVPDCDVRFLRSEDGSGKGAAMVTAVAYRLADQHRARQKTLESLKLSHEQLLEVKRRMKVEMEQGLSKETHEAAPVKMLPTYVCATPDGTEKGDFLALDLGGTNFRVLLVRVRNGKRRGVEMHNKIYSIPQEVMHGTGEELFDHIVQCIADFLEYMGMKGVSLPLGFTFSFPCQQNSLDQSILLKWTKGFKASGCEGEDVVTLLKEAIRRREEFDLDVVAVVNDTVGTMMTCGYEDPHCEVGLIVGTGSNACYMEEMRNVELVDGEEGRMCVNMEWGAFGDNGCLDDLRTVFDVAVDELSLNPGKQRFEKMISGMYLGEIVRNILIDFTKRGLLFRGRISERLKTRGIFETKFLSQIESDCLALLQVRAILRHLGLESTCDDSIIVKEVCTVVARRAAQLCGAGMAAVVDKIRENRGLDNLKVTVGVDGTLYKLHPHFAKVMHETVRDLAPKCDVSFLESEDGSGKGAALITAVACRIREAGQR

Molecular target: PEG3 (Paternally Expressed Gene 3) protein, endogenous in mouse embryonic fibroblasts (mouse (endogenous in MEF)) (UniProt Q3URU2)
Assay: affinity purification with mass spectrometry; extracts of WT and Peg3 KO MEF cells (Pierce IP Lysis Buffer: 25 mM Tris-HCl pH 7.4, 150 mM NaCl, 1% NP-40, 1 mM EDTA, 5% glycerol) immunoprecipitated with anti-PEG3 antibody at 4°C; TMT LC-MS/MS; three WT against three KO samples

Question: B1 was tested. Which binding did it give?
Answer: Its binding is “binds”.

Question: How did the binding turn out when B2 was run?
Answer: The binding was “binds”.

Question: B3 was tested. Which binding did it give?
Answer: Its binding is “binds”.

These are yes or no findings as the source states them, for the method shown. Binding seen in cells or lysates may run through a third protein. Here binding means that the protein was enriched with, or labelled near, the bait; the list need not be complete.
